PubChem BioAssay AID1224826, NIAID – 2016
Shown is a random part of about 17,000 reagents tested. About 1,110 of all reagents (6.6%) were called active. 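Active means lowered or raised reporter signal; replicate intensities are raw and not normalised per plate.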 Entries without a mark were called inactive. The numbers tell different reagents against one gene apart.

Aim: 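Genes that change LPS-induced Tnf promoter activity in mouse macrophages when knocked down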 (primary screen)
Cells: RAW264.7 G9 macrophages from mouse bearing reporters for p65 (GFP) and the Tnf promoter (mCherry)
Knock-down reagent: siRNA pool against mouse genes, 100 nM
Time to read-out: 16 h of LPS stimulation, after 2 days of siRNA transfection
Treatment: bacterial lipopolysaccharide (Salmonella minnesota R595), 10 ng/ml
Detection: 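Nuclear mCherry signal of the Tnf promoter reporter measured by imaging after background removal, scaled to each plate median and turned into robust z-scores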
Reading the numbers: Tnf reporter robust z-score: higher = stronger Tnf promoter reporter signal after LPS; Tnf reporter intensity: higher = stronger Tnf promoter reporter signal
Active means: 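a well counts as active at a score of -1.3 or below (Tlr4 knock-down control median) or above 3 (raised signal); controls and wells holding fewer than 50 cells are excluded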
Calls: active = Tnf reporter clearly lowered or raised; inactive = no clear change in Tnf reporter

gene knocked down	pool no.	Tnf reporter robust z-score	fewer than 50 cells in well	Tnf reporter intensity, replicate 1	Tnf reporter intensity, replicate 2
Bbs4	1	1.42	enough cells in well	169	302
Jkampl	1		fewer than 50 cells per well; well left out of calls	223	25.1
Hba-a1	1	1.04	enough cells in well	288	284
Cfap126	1		fewer than 50 cells per well; well left out of calls	226	308
Or6z3	1	-1.05	enough cells in well	105	85.8
Dsg1b	1	-1.08	enough cells in well	166	112
S1pr1	1	-0.69	enough cells in well	136	278
Tuba1c	1		fewer than 50 cells per well; well left out of calls	37.4	57
Spata32	1	2.16	enough cells in well	265	118
Mgrn1	1	1.19	enough cells in well	237	229
9030612E09Rik	1		fewer than 50 cells per well; well left out of calls	161	136
Dnai1	1	-0.71	enough cells in well	176	148
Zfp280d	1	-1.05	enough cells in well	106	165
Lsm5	1	2.63	enough cells in well	409	234
Cxcl1	1	-0.4	enough cells in well	147	325
Rnf208	1	-0.86	enough cells in well	204	56.6
Zfp87	1	-0.25	enough cells in well	109	120
Dock11	1	-0.84	enough cells in well	143	120
Khdrbs1	1	0.39	enough cells in well	223	205
Fxr2	1	0.16	enough cells in well	280	240
Isg20	1	-0.23	enough cells in well	221	139
Scin	1	-1.08	enough cells in well	86.9	75.4
Mrpl32	1	-1.21	enough cells in well	182	100
Ikzf4	1	-0.37	enough cells in well	108	110
Ikzf4	2	1.03	enough cells in well	209	230
Ryr3	1	0.85	enough cells in well	133	196
Zfp606	1		fewer than 50 cells per well; well left out of calls	57.5	71.4
Eda2r	1	-0.17	enough cells in well	198	239
Sppl3	1		fewer than 50 cells per well; well left out of calls	87	37.1
Or8d1	1	-0.33	enough cells in well	155	111
B3galnt2	1	0.55	enough cells in well	263	283
Alkbh3	1		fewer than 50 cells per well; well left out of calls	193	58.2
Dusp26	1		fewer than 50 cells per well; well left out of calls	89.6	83.7
Msh3	1	0.61	enough cells in well	343	227
Lin7b	1	0.06	enough cells in well	230	119
Flcn	1	2	enough cells in well	242	272
Lcorl	1	1	enough cells in well	230	182
Timcc	1		fewer than 50 cells per well; well left out of calls	222	70.9
Tbx2	1	-0.84	enough cells in well	162	99.7
Or52s1	1	-0.97	enough cells in well	41.3	77
Pgpep1	1	-0.55	enough cells in well	204	66.4
Fam181b	1	-0.15	enough cells in well	172	134
Psmc1	1		fewer than 50 cells per well; well left out of calls	147	384
C1qtnf7	1	0.3	enough cells in well	113	196
Or5d35	1	-0.98	enough cells in well	133	95
Ttc5	1	-0.85	enough cells in well	86.2	67.1
Sbds	1	-0.91	enough cells in well	216	141
Nos2	1	0.05	enough cells in well	282	156
Best2	1	1.56	enough cells in well	183	135
Trem1	1	0.17	enough cells in well	229	260
Cst6	1	-0.52	enough cells in well	188	108
Or51b6	1	-1.15	enough cells in well	80.6	46
Fgfbp1	1	-0.87	enough cells in well	186	162
Ifnk	1	-0.67	enough cells in well	167	88.9
Frmd6	1		fewer than 50 cells per well; well left out of calls	132	50.6
Psd4	1	-0.23	enough cells in well	114	175
Tax1bp1	1	1	enough cells in well	331	167
Ostf1	1	-0.39	enough cells in well	239	135

Records listed so far whose target name begins with S or s (5):
gene knocked down	pool no.	Tnf reporter robust z-score	fewer than 50 cells in well	Tnf reporter intensity, replicate 1	Tnf reporter intensity, replicate 2
S1pr1	1	-0.69	enough cells in well	136	278
Spata32	1	2.16	enough cells in well	265	118
Scin	1	-1.08	enough cells in well	86.9	75.4
Sppl3	1		fewer than 50 cells per well; well left out of calls	87	37.1
Sbds	1	-0.91	enough cells in well	216	141
